{"sequences": {"note": "Amino acid sequences for entries named in this document (tags omitted). A change or cut given only in a name is not applied to a line headed by its entry.", "UniProt Q8C052": "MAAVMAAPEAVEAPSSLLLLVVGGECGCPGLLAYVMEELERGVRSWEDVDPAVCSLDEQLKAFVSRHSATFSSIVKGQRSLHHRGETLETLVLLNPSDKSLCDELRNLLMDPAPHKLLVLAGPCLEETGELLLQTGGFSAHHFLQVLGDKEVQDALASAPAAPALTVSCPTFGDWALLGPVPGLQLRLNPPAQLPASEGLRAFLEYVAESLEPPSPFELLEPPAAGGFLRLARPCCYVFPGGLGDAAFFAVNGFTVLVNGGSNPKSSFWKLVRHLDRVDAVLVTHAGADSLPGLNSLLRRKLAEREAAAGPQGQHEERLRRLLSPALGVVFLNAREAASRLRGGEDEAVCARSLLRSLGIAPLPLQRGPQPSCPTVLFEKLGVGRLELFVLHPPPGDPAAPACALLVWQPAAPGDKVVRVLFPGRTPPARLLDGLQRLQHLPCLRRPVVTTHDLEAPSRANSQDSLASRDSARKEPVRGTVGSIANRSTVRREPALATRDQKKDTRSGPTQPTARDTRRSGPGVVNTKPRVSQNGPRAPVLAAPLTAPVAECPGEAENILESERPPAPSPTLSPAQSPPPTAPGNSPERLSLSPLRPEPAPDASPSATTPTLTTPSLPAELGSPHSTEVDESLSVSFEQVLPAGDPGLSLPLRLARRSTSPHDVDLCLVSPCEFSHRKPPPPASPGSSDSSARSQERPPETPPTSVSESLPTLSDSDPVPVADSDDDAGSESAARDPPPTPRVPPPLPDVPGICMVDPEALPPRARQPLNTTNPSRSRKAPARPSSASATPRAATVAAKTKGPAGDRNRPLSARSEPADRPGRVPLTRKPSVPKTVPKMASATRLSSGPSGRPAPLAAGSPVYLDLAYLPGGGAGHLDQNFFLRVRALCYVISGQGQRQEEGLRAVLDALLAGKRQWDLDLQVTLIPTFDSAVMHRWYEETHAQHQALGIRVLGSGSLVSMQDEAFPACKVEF", "UniProt Q8BWR2": "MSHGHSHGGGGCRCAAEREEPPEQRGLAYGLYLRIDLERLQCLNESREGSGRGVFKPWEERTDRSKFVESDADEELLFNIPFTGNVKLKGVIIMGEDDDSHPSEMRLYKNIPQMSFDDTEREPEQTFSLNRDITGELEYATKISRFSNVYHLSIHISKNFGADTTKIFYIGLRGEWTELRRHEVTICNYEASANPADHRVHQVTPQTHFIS", "UniProt Q8C5N3": "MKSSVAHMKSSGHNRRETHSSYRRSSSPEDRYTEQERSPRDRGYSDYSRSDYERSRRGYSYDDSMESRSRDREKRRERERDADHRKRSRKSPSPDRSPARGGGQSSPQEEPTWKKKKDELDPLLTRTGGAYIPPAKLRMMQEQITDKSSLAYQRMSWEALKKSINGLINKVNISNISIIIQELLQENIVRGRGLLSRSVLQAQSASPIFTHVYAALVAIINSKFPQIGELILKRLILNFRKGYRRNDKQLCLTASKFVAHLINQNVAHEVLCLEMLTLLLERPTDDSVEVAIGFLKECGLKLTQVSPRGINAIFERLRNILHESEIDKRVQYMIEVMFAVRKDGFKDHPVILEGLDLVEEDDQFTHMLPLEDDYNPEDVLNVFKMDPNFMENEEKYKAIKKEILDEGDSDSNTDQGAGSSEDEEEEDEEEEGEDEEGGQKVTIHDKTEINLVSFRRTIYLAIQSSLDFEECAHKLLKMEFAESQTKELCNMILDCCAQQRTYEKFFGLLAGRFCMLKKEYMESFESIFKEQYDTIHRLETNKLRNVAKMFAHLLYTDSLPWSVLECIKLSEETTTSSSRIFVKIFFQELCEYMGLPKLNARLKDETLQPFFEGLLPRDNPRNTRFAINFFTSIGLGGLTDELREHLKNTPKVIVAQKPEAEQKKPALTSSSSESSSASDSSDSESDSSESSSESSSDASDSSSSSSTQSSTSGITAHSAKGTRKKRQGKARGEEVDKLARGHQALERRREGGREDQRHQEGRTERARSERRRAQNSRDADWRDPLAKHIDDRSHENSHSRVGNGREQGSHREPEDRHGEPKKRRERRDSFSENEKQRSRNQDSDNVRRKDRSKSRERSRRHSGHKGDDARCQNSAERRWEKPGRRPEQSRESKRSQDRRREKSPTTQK", "UniProt Q8C767": "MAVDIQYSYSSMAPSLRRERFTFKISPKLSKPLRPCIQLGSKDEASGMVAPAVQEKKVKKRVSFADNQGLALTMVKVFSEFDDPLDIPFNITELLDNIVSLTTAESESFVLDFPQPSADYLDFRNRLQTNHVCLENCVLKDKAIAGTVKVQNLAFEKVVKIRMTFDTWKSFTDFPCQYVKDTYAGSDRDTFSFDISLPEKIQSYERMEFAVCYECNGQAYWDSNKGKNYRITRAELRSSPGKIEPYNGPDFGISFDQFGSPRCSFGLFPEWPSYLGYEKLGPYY", "UniProt Q8C0I4, whole entry": "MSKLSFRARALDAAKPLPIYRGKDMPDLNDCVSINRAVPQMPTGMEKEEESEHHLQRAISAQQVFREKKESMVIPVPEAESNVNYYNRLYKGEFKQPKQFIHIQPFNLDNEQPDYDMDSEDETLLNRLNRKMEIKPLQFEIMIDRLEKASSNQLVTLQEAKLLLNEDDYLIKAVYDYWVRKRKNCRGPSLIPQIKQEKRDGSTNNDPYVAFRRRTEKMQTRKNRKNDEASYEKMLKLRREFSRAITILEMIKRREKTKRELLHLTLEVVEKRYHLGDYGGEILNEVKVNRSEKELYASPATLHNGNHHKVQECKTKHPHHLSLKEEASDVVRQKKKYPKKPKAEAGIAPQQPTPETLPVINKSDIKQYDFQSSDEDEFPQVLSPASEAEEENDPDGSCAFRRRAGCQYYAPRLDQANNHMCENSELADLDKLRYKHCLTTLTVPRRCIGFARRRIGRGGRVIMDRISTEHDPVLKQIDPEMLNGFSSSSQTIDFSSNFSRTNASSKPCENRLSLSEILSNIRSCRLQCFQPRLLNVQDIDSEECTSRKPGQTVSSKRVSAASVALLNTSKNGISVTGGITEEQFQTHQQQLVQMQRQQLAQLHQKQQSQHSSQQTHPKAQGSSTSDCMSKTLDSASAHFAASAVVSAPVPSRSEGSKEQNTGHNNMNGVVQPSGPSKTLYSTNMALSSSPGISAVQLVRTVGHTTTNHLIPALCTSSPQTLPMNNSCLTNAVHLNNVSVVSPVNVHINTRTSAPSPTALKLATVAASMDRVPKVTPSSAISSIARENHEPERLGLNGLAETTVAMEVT", "UniProt Q8BWY4": "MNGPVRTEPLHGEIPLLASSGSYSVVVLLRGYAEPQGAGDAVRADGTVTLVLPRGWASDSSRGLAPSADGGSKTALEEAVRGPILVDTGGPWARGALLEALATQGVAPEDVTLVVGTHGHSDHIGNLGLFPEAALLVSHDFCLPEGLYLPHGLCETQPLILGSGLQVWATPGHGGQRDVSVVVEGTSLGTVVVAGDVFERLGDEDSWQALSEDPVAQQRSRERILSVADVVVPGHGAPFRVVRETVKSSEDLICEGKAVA", "UniProt Q8BW22, whole entry": "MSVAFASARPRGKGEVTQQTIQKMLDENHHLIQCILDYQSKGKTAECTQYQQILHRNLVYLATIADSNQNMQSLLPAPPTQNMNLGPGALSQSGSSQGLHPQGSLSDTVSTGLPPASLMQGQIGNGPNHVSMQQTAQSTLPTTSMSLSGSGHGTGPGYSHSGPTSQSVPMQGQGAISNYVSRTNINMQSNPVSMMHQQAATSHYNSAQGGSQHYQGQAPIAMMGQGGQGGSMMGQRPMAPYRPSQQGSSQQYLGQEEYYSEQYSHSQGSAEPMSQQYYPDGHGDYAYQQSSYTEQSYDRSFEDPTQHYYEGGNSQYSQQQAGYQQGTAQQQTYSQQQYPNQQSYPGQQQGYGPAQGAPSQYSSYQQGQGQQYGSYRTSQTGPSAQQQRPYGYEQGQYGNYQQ", "UniProt Q8C6G1": "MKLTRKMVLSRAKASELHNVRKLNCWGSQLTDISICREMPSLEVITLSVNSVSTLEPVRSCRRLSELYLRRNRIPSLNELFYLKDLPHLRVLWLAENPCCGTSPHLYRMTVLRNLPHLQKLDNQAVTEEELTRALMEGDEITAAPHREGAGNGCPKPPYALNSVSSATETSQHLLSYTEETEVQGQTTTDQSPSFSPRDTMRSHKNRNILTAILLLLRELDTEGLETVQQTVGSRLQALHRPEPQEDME", "UniProt Q8C0D9": "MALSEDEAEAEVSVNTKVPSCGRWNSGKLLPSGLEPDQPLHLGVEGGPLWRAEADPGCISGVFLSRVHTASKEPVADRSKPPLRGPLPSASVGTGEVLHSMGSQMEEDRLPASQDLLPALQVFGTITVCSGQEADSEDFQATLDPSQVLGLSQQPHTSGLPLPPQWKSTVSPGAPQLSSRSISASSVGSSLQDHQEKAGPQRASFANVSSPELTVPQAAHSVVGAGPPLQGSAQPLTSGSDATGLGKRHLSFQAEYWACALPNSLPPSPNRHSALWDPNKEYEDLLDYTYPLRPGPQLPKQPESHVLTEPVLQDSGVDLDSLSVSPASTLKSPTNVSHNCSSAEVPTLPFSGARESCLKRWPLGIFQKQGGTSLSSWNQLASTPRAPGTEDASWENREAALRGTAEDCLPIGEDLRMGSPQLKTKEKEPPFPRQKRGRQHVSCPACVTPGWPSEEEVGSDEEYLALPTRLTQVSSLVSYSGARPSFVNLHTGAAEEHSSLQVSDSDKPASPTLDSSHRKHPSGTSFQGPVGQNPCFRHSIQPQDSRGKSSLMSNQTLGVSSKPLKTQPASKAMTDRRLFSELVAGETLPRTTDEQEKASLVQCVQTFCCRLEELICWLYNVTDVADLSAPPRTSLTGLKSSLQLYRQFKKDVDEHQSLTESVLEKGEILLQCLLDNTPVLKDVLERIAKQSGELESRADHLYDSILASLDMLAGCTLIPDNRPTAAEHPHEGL", "UniProt Q8BVF7, whole entry": "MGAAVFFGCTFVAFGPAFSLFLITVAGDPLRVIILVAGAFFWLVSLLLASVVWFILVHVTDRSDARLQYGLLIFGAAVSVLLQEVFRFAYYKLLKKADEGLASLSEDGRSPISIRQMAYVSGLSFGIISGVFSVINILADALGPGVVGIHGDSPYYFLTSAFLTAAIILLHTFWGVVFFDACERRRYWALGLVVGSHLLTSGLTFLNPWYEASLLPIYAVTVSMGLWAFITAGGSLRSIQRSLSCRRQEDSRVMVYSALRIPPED", "UniProt Q8BW75, whole entry": "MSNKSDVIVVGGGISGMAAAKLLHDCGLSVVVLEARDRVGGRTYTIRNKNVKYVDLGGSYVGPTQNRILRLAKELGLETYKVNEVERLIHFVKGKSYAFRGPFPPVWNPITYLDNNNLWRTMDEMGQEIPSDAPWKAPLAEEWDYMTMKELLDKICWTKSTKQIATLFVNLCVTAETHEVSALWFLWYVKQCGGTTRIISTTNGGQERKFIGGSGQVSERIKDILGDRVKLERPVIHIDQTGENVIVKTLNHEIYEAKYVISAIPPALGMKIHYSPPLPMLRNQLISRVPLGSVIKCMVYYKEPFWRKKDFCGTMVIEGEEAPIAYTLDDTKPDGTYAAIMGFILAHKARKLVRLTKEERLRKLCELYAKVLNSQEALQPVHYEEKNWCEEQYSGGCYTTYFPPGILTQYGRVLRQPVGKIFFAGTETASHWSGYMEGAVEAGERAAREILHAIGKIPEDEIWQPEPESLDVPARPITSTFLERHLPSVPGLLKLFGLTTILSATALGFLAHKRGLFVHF", "UniProt Q8C010": "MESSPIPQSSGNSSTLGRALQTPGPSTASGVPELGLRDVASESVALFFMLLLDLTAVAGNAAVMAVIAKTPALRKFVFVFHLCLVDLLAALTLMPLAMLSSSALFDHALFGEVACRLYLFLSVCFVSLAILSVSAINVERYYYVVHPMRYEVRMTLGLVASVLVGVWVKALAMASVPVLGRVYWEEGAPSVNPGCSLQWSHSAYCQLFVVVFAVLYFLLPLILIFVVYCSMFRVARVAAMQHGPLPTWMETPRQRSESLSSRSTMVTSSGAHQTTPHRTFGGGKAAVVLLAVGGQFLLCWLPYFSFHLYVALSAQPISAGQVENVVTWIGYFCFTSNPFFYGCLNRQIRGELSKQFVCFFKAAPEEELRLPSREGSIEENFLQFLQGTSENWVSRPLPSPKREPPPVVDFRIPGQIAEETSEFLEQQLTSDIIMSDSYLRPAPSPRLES", "UniProt Q8C163": "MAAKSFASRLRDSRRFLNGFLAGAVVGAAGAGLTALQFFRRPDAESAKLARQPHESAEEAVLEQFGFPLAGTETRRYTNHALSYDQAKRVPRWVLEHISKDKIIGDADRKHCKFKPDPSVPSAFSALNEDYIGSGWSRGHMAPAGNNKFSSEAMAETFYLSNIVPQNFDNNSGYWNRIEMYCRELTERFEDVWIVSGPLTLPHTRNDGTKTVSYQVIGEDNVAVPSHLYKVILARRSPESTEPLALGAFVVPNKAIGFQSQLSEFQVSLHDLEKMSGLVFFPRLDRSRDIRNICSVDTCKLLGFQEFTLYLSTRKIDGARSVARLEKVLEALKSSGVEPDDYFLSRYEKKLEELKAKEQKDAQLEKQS"}, "source": "the supplement of paper PMC12819154", "about": "“High-throughput peptide-centric local stability assay extends protein–ligand identification to membrane proteins, tissues and bacteria” (Nature Structural & Molecular Biology, 2025)", "note": "The other results are listed elsewhere or left out. Most entries show no effect beyond the scatter of the controls.", "data": [{"compound": "CN[C@@H]1C[C@H]2O[C@@](C)([C@@H]1OC)n1c3ccccc3c3c4c(c5c6ccccc6n2c5c31)C(=O)NC4 [staurosporine]", "assay": "log2 fold change of tryptic peptide abundance, ligand vs vehicle (limited proteolysis) (log2 ratio); higher = more trypsin-susceptible (destabilized)", "conditions": "ligand concentration: 20 uM; sample: mouse liver crude lysate; replicate design: treated separately", "values": [{"target": "UniProt Q8C8U0 (peptide sequence: KEASDGTDKAPTDSR, peptide start residue: 441)", "log2 fold change": 2.21}, {"target": "UniProt Q8C4J7 (peptide sequence: QQELDNLLHEKR, peptide start residue: 654)", "log2 fold change": -0.341}, {"target": "UniProt Q8C052 (peptide sequence: ANSQDSLASR, peptide start residue: 460)", "log2 fold change": -0.247}, {"target": "UniProt Q8C267 (peptide sequence: QVLEVPGKK, peptide start residue: 581)", "log2 fold change": -0.289}, {"target": "UniProt Q8BWR2 (peptide sequence: VHQVTPQTHFIS, peptide start residue: 200)", "log2 fold change": -0.153}, {"target": "UniProt Q8C341 (peptide sequence: IETIKPADPLHPIANGDIK, peptide start residue: 1114)", "log2 fold change": -0.0911}, {"target": "UniProt Q8C7Q4 (peptide sequence: YEREQYADR, peptide start residue: 347)", "log2 fold change": 0.871}, {"target": "UniProt Q8C1B1 (peptide sequence: SQPGSSASSSSGVK, peptide start residue: 657)", "log2 fold change": -0.456}, {"target": "UniProt Q8C561 (peptide sequence: NMDDYEDFDEKR, peptide start residue: 286)", "log2 fold change": -0.141}, {"target": "UniProt Q8C5N3 (peptide sequence: ETHSSYR, peptide start residue: 17)", "log2 fold change": -0.337}, {"target": "UniProt Q8C767 (peptide sequence: VQNLAFEK, peptide start residue: 150)", "log2 fold change": -0.472}, {"target": "UniProt Q8C0I4 (peptide sequence: VSAASVALLNTSK, peptide start residue: 558)", "log2 fold change": -0.43}, {"target": "UniProt Q8BWU5 (peptide sequence: DIDCIAFTK, peptide start residue: 70)", "log2 fold change": 0.346}, {"target": "UniProt Q8BWY4 (peptide sequence: SSEDLICEGK, peptide start residue: 248)", "log2 fold change": -0.0318}, {"target": "UniProt Q8BW22 (peptide sequence: TAECTQYQQILHR, peptide start residue: 44)", "log2 fold change": -0.267}, {"target": "UniProt Q8C6G1 (peptide sequence: ASELHNVR, peptide start residue: 14)", "log2 fold change": -0.456}, {"target": "UniProt Q8C0I1 (peptide sequence: KFYITKFK, peptide start residue: 436)", "log2 fold change": -0.0141}, {"target": "UniProt Q8BYK6 (peptide sequence: QEEEEAMR, peptide start residue: 570)", "log2 fold change": 0.338}, {"target": "UniProt Q8C650 (peptide sequence: HEFYGER, peptide start residue: 326)", "log2 fold change": -0.119}, {"target": "UniProt Q8C0D9 (peptide sequence: SISASSVGSSLQDHQEK, peptide start residue: 181)", "log2 fold change": -0.244}, {"target": "UniProt Q8BVF7 (peptide sequence: VMVYSALR, peptide start residue: 253)", "log2 fold change": -0.0196}, {"target": "UniProt Q8C0V9 (peptide sequence: HLLQLLSNSHR, peptide start residue: 312)", "log2 fold change": 0.106}, {"target": "UniProt Q8BZ33 (peptide sequence: PSRIFGFVAK, peptide start residue: 648)", "log2 fold change": 0.492}, {"target": "UniProt Q8BW75 (peptide sequence: NQLISRVPLGSVIK, peptide start residue: 283)", "log2 fold change": -0.621}, {"target": "UniProt Q8C7R4 (peptide sequence: IWSQCVELAR, peptide start residue: 695)", "log2 fold change": 0.299}, {"target": "UniProt Q8C010 (peptide sequence: QIRGELSK, peptide start residue: 347)", "log2 fold change": -0.0866}, {"target": "UniProt Q8C163 (peptide sequence: KLEELKAK, peptide start residue: 39)", "log2 fold change": -0.224}, {"target": "UniProt Q8BZW2 (peptide sequence: FKGFVNSVAAVR, peptide start residue: 51)", "log2 fold change": 0.441}, {"target": "UniProt Q8C4Y3 (peptide sequence: LVMADKELYR, peptide start residue: 130)", "log2 fold change": 0.406}, {"target": "UniProt Q8C0J2 (peptide sequence: QTFSAPGFK, peptide start residue: 524)", "log2 fold change": 0.339}, {"target": "UniProt Q8BW70 (peptide sequence: QVGHQVLEAYAR, peptide start residue: 59)", "log2 fold change": -0.261}]}]}
